# Cleaved PARP after 72 h of treatment

Data from the primary screen of doi:10.1371/journal.pone.0140310, rounded.

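Human melanoma cells were exposed to a pair of drugs for 72 h in 1,536-well plates and read by automated microscopy after fixing and staining. The read-out is the fraction of cleaved-PARP-positive nuclei, in % of that fraction in the DMSO control; 200 means twice the control level of this apoptosis marker. Every drug was used at one fixed concentration, the higher of two screened. No replicate spread is given; individual values may be noisy. The marker varies much from line to line, for technical or biological reasons.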 Only some of the drugs and lines screened are listed, without regard to their results. A dash means that no value is listed here.

Compounds and concentrations:
KU-0063794 (0.1 µM): COc1ccc(-c2ccc3c(N4CCOCC4)nc(N4C[C@@H](C)O[C@@H](C)C4)nc3n2)cc1CO
pioglitazone (10 µM): CCc1ccc(CCOc2ccc(CC3SC(=O)NC3=O)cc2)nc1 (stereo unspecified)
everolimus (0.1 µM): CO[C@H]1C[C@@H]2CC[C@@H](C)[C@@](O)(O2)C(=O)C(=O)N2CCCC[C@H]2C(=O)O[C@H]([C@H](C)C[C@@H]2CC[C@@H](OCCO)[C@H](OC)C2)CC(=O)[C@H](C)/C=C(\C)[C@@H](O)[C@@H](OC)C(=O)[C@H](C)C[C@H](C)/C=C/C=C/C=C/1C
erlotinib (4 µM): C#Cc1cccc(Nc2ncnc3cc(OCCOC)c(OCCOC)cc23)c1
U73122 (2 µM): COc1ccc2c(c1)CCC1C2CCC2(C)C(NCCCCCCN3C(=O)C=CC3=O)CCC12 (stereo unspecified)
palbociclib (0.2 µM): CC(=O)c1c(C)c2cnc(Nc3ccc(N4CCNCC4)cn3)nc2n(C2CCCC2)c1=O
OSU-03012 (5 µM): NCC(=O)Nc1ccc(-n2nc(C(F)(F)F)cc2-c2ccc3c(ccc4ccccc43)c2)cc1

Drugs,A2058,UACC-257,LB2518-MEL,WM3526,MZ2-MEL,SK-MEL-2,A375,IST-MEL1,G-361,COLO 792,RPMI-7951,501mel
pioglitazone + erlotinib,163,20.4,87.9,164,95.5,60.0,68.5,203,125,78.2,84.0,94.7
everolimus + U73122,537,61.3,296,125,45.2,64.1,178,371,304,146,168,334
KU-0063794 + U73122,170,24.0,129,56.7,118,74.9,48.4,275,81.4,104,172,51.6
palbociclib + erlotinib,119,52.4,85.5,78.1,639,46.9,41.0,205,97.9,229,275,-
everolimus + palbociclib,219,85.9,116,127,42.6,143,79.9,158,107,186,56.6,-
KU-0063794 + erlotinib,178,37.1,45.3,44.4,86.8,201,47.6,89.3,129,36.0,187,74.6
everolimus + KU-0063794,178,81.1,105,184,121,110,172,292,354,381,147,3750
everolimus + erlotinib,172,77.4,131,317,132,144,275,94.3,471,428,121,-
U73122 + palbociclib,137,37.5,53.4,103,122,76.5,179,112,29.7,85.0,110,116
palbociclib + OSU-03012,73.5,234,45.9,164,70.8,336,-,480,94.5,98.6,167,-
everolimus + pioglitazone,118,88.5,-,83.0,-,162,88.1,186,197,126,199,-
palbociclib + pioglitazone,72.1,31.8,29.2,139,62.5,42.5,160,188,122,116,89.7,106
pioglitazone + KU-0063794,89.9,94.7,74.5,119,263,115,46.5,30.4,51.3,81.2,87.7,65.8
OSU-03012 + pioglitazone,74.2,117,52.5,263,453,534,267,148,139,108,86.9,2500
OSU-03012 + everolimus,81.3,391,122,346,84.2,361,-,85.9,69.3,123,221,-
palbociclib + KU-0063794,81.2,35.2,147,93.6,104,131,262,107,83.3,67.1,101,40.3
U73122 + erlotinib,427,26.1,105,63.1,48.0,101,154,77.8,152,175,379,173
OSU-03012 + KU-0063794,55.4,16.9,47.4,170,102,338,266,60.8,97.1,176,92.1,1900
OSU-03012 + erlotinib,194,51.6,148,612,54.9,309,-,72.0,218,339,585,-
U73122 + pioglitazone,194,159,75.4,151,58.6,192,786,57.0,105,104,362,109

The first 2 entries again:

Drugs	A2058	UACC-257	LB2518-MEL	WM3526	MZ2-MEL	SK-MEL-2	A375	IST-MEL1	G-361	COLO 792	RPMI-7951	501mel
pioglitazone + erlotinib	163	20.4	87.9	164	95.5	60.0	68.5	203	125	78.2	84.0	94.7
everolimus + U73122	537	61.3	296	125	45.2	64.1	178	371	304	146	168	334